# Results as given in patent US20080108677A1, “Thioxothiazolidinone Compounds For Use As Pharmaceuticals” (Karyon-CTT Ltd, priority 2004, published 2008).
# At least one peptide structure holds a part that was inferred or is arguable (an end, a ring closure or a residue). Positions of bridges follow the written chain, without caps; N, C: chain ends. Residues, ends and D or L forms follow the SMILES beside them.
# Key:
# [1] = biological target: T1, αM I domain-GST fusion (Homo sapiens, UniProt P11215); assay: DDGW-phage binding competition assay; conditions: dilution series 10 μM to 150 nM; mean of three independent experiments; read-out: IC50 for the inhibition of DDGW-phage binding to the αM I domain
# T1 construct: immobilizing 20 ng/well recombinant αM I domain-GST fusion in 96-well plates
# Description: Screening of the compound library. A combinatorial library of 10 000 small molecules was purchased from ChemBridge (San Diego, Calif.). A competition assay with the DDGW peptide bearing phage was set up by immobilizing 20 ng/well recombinant αM I domain-GST fusion in 96-well plates (Michishita et al., 1993). The compounds were used in pools comprising eight compounds, each at a 5 μM concentration and DMSO at a 1.25% concentration. After preincubation of the compounds in the wells, DDGW phage was added (3×10^8 transducing units/well). As controls, soluble DDGW peptide and a control peptide, and an unrelevant phage were included in every plate. Phage binding was detected with an anti-phage antibody as described (Bjorklund et al., 2004). Pools with inhibitory activity were re-tested as single compounds. The DDGW-phage inhibiting activity of these hits at a 10 μM concentration is shown in supplementary data. To calculate the IC50 values for the compounds, dilution series from the DDGW peptide and compounds were made (10 μM to 150 nM) and DDGW phage binding was measured. No inhibitor (DMSO as a vehicle) was used as 100% binding after subtracting the background value obtained with an irrelevant control phage.
# [2] = biological target: T2, αM I domain / proMMP-9 (Homo sapiens, UniProt P11215); assay: proMMP-9 binding to the αM integrin I domain; conditions: DDGW peptide 100 μM
# T2 construct: Soluble αM integrin I domain-GST fusion (2.5 μg/ml) was added; made in house
# Description: proMMP-9 and fibrinogen binding to the αM integrin I domain. […] The resulting MMP-9 with this mutation is structurally identical to the wild type protein (Rowsell et al., 2002). ProMMP-9-ΔHC-E^402Q, intact proMMP-9 or fibrinogen (100 ng/well) was coated on microtiter wells in TBS followed by saturation of the wells with 1% BSA in PBS/0.05% Tween20. Soluble αM integrin I domain-GST fusion (2.5 μg/ml) was added in the presence or absence of peptides or compounds in 0.1% BSA/TBS/0.05% Tween20/1 mM CaCl2/1 mM MgCl2, and incubated for one hour. In some experiments 10 mM CaCl2 or 10 mM MgCl2 were used instead of 1 mM CaCl2/1 mM MgCl2. Bound GST fusion was detected with anti-GST antibody (1:2000 dilution) and peroxidase-conjugated anti-goat antibody (1:2000 dilution).
# [3] = biological target: T3, αM I domain (Homo sapiens, UniProt P11215); assay: Inhibition of antibody binding to immobilized αM I domain-GST fusion; conditions: DDGW peptide 100 μM, chemical competitors 50 μM
# T3 construct: immobilizing 20 ng/well recombinant αM I domain-GST fusion in 96-well plates
# Description: Inhibition of antibody binding to the integrins. The αM I domain or purified αMβ2 integrin (50 ng/well) were coated on microtiter wells followed by saturation of the wells with 1% BSA in PBS/0.05% Tween20. The DDGW peptide or the compounds at concentrations indicated were preincubated for 30 minutes with the integrin, followed by addition of the antibodies LM2/1, MEM170, OKM-10, IB4 or a control IgG at a 1 μg/ml final concentration. The antibodies LM2/1 and MEM170 recognize the αM integrin I domain, whereas the epitope for OKM-10 is located outside the αM I domain (Koivunen et al., 2001; Li et al., 1995; Stefanidakis et al., 2003). The antibodies were incubated for 45 minutes followed by detection of the bound antibodies with a peroxidase conjugated anti-mouse antibody.
# [4] = test system: THP-1 cells; assay: THP-1 transwell migration on fibrinogen; type: cell-based, Human; conditions: InhI 50 μM, DDGW concentration not given
# Description: (§1) Cell adhesion and migration. Cell adhesion was performed as described (Koivunen et al., 2001). Briefly, THP-1 cells (50 000/well) were stimulated with 50 nM PDBu (4β-phorbol-12,13-dibutyrate, SigmaAldrich) and allowed to bind to the fibrinogen coated microtiter wells (10 μg/ml) in the presence or absence of compounds or DMSO in serum-free RPMI medium containing 0.1% BSA. Non-adherent cells were removed by gentle washing with PBS or 2.5 mM EDTA in PBS, and adherent cells were quantitated with a phosphatase assay (Koivunen et al., 2001). Alternatively, THP-1 cells were stimulated with 20 nM PDBu and allowed to adhere on uncoated plastic overnight. Nonadherent cells were removed by washing with PBS followed by six washes with 2.5 mM EDTA in PBS. Cell migration was done using transwells (5 μm pore size) coated with 40 μg/ml LLG-C4-GST or fibrinogen (Koivunen et al., 2001). THP-1 and OCI-AML-3 cells (50 000 cells/100 μl) were allowed to migrate overnight in 10% FBS/RPMI medium in the presence or absence of peptides or compounds and stimulating cell migration with 40 nM PDBu. Gelatinase-selective inhibitor I (InhI) at a 50 μM concentration (Calbiochem) was used to evaluate the level of gelatinase-dependent migration on fibrinogen. Migrated cells were stained with crystal violet and counted (Koivunen et al., 2001). […]
# [5] = test system: OCI-AML-3 cells; assay: OCI-AML-3 transwell migration on fibrinogen; type: cell-based; conditions: InhI 50 μM, DDGW concentration not given
# Description: as §1
# [6] = test system: leukocytes emigrated into the peritoneum; conditions: Stefanidakis et al., 2004; cited from earlier work
compound,measurement,setting,value
"CC[C@H](C)[C@@H]1NC(=O)[C@@H](NC(=O)[C@H](C)NC(=O)CNC(=O)[C@H](CC(=O)O)NC(=O)[C@H](C)N)CSSC[C@@H](C(=O)NCC(=O)N[C@@H](C)C(=O)N[C@@H](C)C(=O)NCC(=O)O)NC(=O)[C@H](Cc2c[nH]c3ccccc23)NC(=O)CNC(=O)[C@H](CC(=O)O)NC(=O)[C@H](CC(=O)O)NC(=O)[C@H](CCSC)NC(=O)[C@H](Cc2c[nH]c3ccccc23)NC(=O)[C@H](CC(C)C)NC1=O [DDGW peptide, ADGACILWMDDGWCGAAG, reference compound] (H-ADGACILWMDDGWCGAAG-OH; disulfide 5-14 (inferred); N-terminus and C-terminus assumed)",IC50,[1],2600 ± 500 nM
same,αM I domain binding to proMMP-9-E402Q-ΔHC,[2],inhibited
same,effect on antibody binding,[3],only a marginal effect
same,"inhibition of migration on fibrinogen-coated transwells, controls",[4],inhibitory effect
same,"inhibition of migration on fibrinogen-coated transwells, controls",[5],inhibitory effect
same,emigration of activated neutrophils into the peritoneal cavity,[6],potently inhibits
